The numbers were not newly measured in US20110178180A1, “DEUTERIUM-ENRICHED COLCHICINE, THIOCOLCHICINE, AND DERIVATIVES THEREOF; METHODS OF PREPARATION; AND USE THEREOF” (priority 2010, published 2011), which cites them from elsewhere.

In this series the test system is rat model. As to conditions: metabolites of thiocolchicoside.

With `COc1c(O)cc2c(c1OC)-c1ccc(SC)c(=O)cc1[C@@H](NC(C)=O)CC2` [aglycone derivative], the muscle relaxant activity result was “no muscle relaxant activity”.
